Assay results reported in patent US4057530A, “2-Phenyl-indole derivatives and process for preparing the same” (priority 1974, dated 1977).

Experiments:
[1] = Extractibility of the stabilizers from bottles of Compounds Nos. 609 and 675
[2] = Extractibility of the stabilizer from Compound A containing Stabilizer 16
Protocol: This study was carried out in accordance with the requirements of the Food and Drug Administration (U.S.A.).
The extractions were performed in semi-rigid bottles, prepared with Compounds Nos. 609 and 675, and with the following solvents: water, an aqueous solution of acetic acid (3%), ethanol-water 50/50, heptane.
The ratio of the volume of solvent to the surface of plastic material exposed to extraction was about 1 cm^2 to […] of solvent, taking into account the geometric characteristics of the bottles.
The quantity of stabilizer extracted was determined by colorimetric assay using p-dimethylaminobenzaldehyde, in accordance with the method described in Analytical Chemistry 36, 425-26 (1964).
The amounts of stabilizer assayed are expressed in μg per liter of extraction solvent or, which is the same, per 1000 cm^2 of surface submitted to extraction.
The same trials were carried out with Compound A containing 2-(4'-dodecylthio-phenyl)-indole (Stabilizer 16) as stabilizer and the following results were obtained: […]

CCCCCCCCCCCCOc1ccc(-c2cc3ccccc3[nH]2)cc1 [Stabilizer 8, 2-(4'-dodecyloxy-phenyl)-indole]
Extractibility in water, times less than 2-phenyl-indole [1]: at least 10 times less

CCCCCCCCCCCCSc1ccc(-c2cc3ccccc3[nH]2)cc1 [Stabilizer 16, 2-(4'-n-dodecylthio-phenyl)-indole]
Extractibility in water, times less than 2-phenyl-indole [2]: at least 10 times less
